The values that follow come from article doi:10.1101/2021.05.18.444567.

No constants are given. Whether binding was seen depends on the method and setting. Binding seen in cells or lysates may run through a third protein. A result given as binding can be weak or reduced; the word gives no strength.

The target in this test is FLAG-METTL5 (human). Briefly: co-IP.

B1: TRMT112 (protein, UniProt Q9UI30 1-125)
chain: MKLLTHNLLSSHVRGVGSRGFPLRLQATEVRICPVEFNPNFVARMIPKVEWSAFLEAADNLRLIQVPKGPVEGYEENEEFLRTMHHLLLEVEVIEGTLQCPESGRMFPISRGIPNMLLSEEETES
In the case of B1, the binding entry was “binds”.
